Laboratory results from US11905417B2, “Anthraquinone compound, liquid crystal composition for dimming including said compound, and dimming element” (Nippon Kayaku Kabushiki Kaisha, priority 2020, dated 2024).

Experiment: Spectral properties of light control elements: transmittance T (0 V) at λmax with no voltage applied
Conditions: cured light control element, composition at maximum dissolution amount, 20 μm spacer

For `CC(C)(C)c1ccc(Sc2cccc3c2C(=O)c2cccc(Sc4ccc5ccccc5c4)c2C3=O)cc1` [Formula(A)], which “T (0 V)” value is on record?
The value was 54.0.

Which “T (0 V)” value does the source give for `CC(CC(=O)Oc1ccc(Sc2cccc3c2C(=O)c2cccc(Sc4ccc(OC(=O)CC(C)CC(C)(C)C)cc4)c2C3=O)cc1)CC(C)(C)C` (centres unmarked) [Formula(D)] here?
The value was 44.1.

Which “T (0 V)” value does the source give for `CCCCCC(C)CCC(=O)Oc1ccc(Sc2cccc3c2C(=O)c2cccc(Sc4ccc(OC(=O)CCC(C)CCCCC)cc4)c2C3=O)cc1` (centres unmarked) [Formula(E)] here?
Its value is 43.8.

For `CCCCCCCCC(CCCCCC)C(=O)Oc1ccc(Sc2cccc3c2C(=O)c2cccc(Sc4ccc(OC(=O)C(CCCCCC)CCCCCCCC)cc4)c2C3=O)cc1` (centres unmarked) [No.2], which “T (0 V)” value is on record?
The value was 12.8.

With `CCCCC(CC)C(=O)Oc1ccc(Sc2cccc3c2C(=O)c2cccc(Sc4ccc(OC(=O)C(CC)CCCC)cc4)c2C3=O)cc1` (centres unmarked) [No.3] as the compound, how does the “T (0 V)” value read?
The value was 8.8.
